Assay results from article PMC10959363.
These are yes or no findings as the source states them, for the method shown. Binding seen in cells or lysates may run through a third protein. For part of these data: Binding calls can cover weak binding; strength is not graded here. For part of these data: Where a sequence is shown, tags or fusion partners need not be part of it.

B1: SERPINE1 mRNA binding protein 1, HA-tagged (SERBP1-HA) (protein, UniProt Q6AXS5 1-407)
chain: MPGHLQEGFGCVVTNRFDQLFDDESDPFEVLKAAENKKKEAGGGGVGGPGAKSAAQAAAQTNSNAAGKQLRKESQKDRKNPLPPSVGVADKKEETQPPVALKKEGIRRVGRRPDQQLQGDGKIIDRRPERRPPRERRFEKPLEEKGEGGEFSVDRPIIERPIRGRGGLGRGRGGRGRGMGRGDGFDSRGKREFDRHSGSDRSSFSHYSGLKHEDKRGGSGSHNWGTVKDELTESPKYIQKQISYNCSDLEQSNVTEETPEGEEHPVADTENKENEVEEVKEEGPKEMTLDEWKAIQNKDRAKVEFNIRKPNEGADGQWKKGFVLHKSKSEEAHAEDSVMDHHFRKPANDITSQLEINFGDLGRPGRGGRGGRGGRGRGGRPNRGSRTDKSSASAPDVDDPEAFPALA
B2: SERPINE1 mRNA binding protein 1 (SERBP1), endogenous (protein, UniProt Q6AXS5 1-407)
chain: B1 chain

Experiments:
[1] = target: Sirtuin 3, Myc-tagged (SIRT3-Myc); experiment: co-IP; KMM cells lentivirally transduced with SERBP1-HA and the tagged partner; lysate immunoprecipitated by the partner's tag (anti-Myc or anti-Flag antibody) on magnetic beads at 4°C overnight, washed with TBST, Western blotting
[2] = target: KSHV vFLIP, Flag-tagged (vFLIP-Flag) (Kaposi's sarcoma-associated herpesvirus (KSHV)); experiment: as above
[3] = target: Sirtuin 3 (SIRT3), endogenous (rat (endogenous in MM and KMM cells)); experiment: co-IP; endogenous proteins in MM and KMM cell lysates, and in KMM cells transduced with vIL-6-Flag or its control pHAGE; immunoprecipitated with anti-SIRT3 antibody

Binder | binding [1] | binding [2] | binding [3]
B1 | binds | no binding | 
B2 |  |  | binds
